# Measurements published in publication doi:10.1101/321885.
# Chains of the proteins cited; added tags and fusions are not shown.
# UniProt Q91YD9: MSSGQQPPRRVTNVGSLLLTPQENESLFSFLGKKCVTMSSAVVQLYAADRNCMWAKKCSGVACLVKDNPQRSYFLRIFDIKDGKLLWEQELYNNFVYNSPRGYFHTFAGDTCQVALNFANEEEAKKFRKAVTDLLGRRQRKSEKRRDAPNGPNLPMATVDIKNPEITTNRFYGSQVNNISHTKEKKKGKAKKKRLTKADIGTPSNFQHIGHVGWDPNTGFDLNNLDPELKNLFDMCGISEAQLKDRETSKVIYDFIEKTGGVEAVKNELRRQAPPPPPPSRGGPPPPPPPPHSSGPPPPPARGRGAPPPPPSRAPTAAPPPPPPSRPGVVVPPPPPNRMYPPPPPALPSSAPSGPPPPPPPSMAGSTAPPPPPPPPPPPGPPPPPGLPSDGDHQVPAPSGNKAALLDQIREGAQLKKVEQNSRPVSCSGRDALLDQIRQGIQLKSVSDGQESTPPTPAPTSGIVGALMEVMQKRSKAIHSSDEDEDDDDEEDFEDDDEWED
# These are yes or no findings as the source states them, for the method shown. In cells and extracts the contact can be indirect. Some binding calls cover weakened binding; strength is not graded here.
# Target: T1, Dynamin 2 (mouse (endogenous in primary myotubes)) (UniProt P39054)
# T1 sequence: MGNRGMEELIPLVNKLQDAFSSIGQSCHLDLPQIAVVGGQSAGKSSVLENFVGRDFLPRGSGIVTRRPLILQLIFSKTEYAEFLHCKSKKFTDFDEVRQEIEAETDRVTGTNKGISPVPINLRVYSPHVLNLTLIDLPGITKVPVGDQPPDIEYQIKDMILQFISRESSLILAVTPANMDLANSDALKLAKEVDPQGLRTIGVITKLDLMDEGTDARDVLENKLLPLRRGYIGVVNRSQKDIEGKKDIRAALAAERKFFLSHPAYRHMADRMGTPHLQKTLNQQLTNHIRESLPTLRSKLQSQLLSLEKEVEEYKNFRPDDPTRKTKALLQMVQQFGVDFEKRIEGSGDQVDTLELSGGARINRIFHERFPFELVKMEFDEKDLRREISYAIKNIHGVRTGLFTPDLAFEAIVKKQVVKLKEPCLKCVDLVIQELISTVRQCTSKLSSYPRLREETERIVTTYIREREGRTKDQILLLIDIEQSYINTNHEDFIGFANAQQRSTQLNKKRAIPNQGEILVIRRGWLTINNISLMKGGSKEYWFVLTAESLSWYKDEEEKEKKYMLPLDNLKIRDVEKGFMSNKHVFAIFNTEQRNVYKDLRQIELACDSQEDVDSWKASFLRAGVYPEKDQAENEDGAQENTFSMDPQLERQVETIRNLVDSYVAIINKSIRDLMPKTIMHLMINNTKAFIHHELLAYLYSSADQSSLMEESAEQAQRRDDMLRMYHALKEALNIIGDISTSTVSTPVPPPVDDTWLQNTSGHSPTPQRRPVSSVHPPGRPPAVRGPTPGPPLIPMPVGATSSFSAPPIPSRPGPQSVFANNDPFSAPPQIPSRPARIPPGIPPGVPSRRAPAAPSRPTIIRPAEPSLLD
# Experiment: co-IP
substance,measurement,value
Neuronal Wiskott-Aldrich Syndrome protein (from UniProt Q91YD9 1-501),binding,binds
